The list shows a part of the results. These are further read-outs of the screen, such as a control signal, another cell line or another target. No call is given for them. The list favours compounds with an active or inconclusive main result. Potencies come from curve fits of mixed quality, noted in brackets.
Assay: qHTS Assay for Lipid Storage Modulators in Drosophila S3 Cells;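 as to cell number change: cells counted by Cell Tracker Red CMTPX staining in the red channel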
Conditions: BODIPY lipid droplet fluorescence, 18-24 h; for cell number change: measured here: cell count max response, cells fed with added oleic acid
In short: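 Drosophila S3 cells loaded with oleic acid (400 uM, as added) and compounds at several concentrations; lipid droplets imaged by 488-nm laser-scanning cytometry, 500–530 nm intensity and object ratio to cell channel. Percent activity normalized to 20 uM Triacsin C.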

[1] = measured here: lipid fluorescence (Fed channel) AC50, cells fed with added oleic acid
[2] = measured here: cell number channel AC50, cells fed with added oleic acid

Row | SMILES | cell number change [%] | AC50 [1] | AC50 [2]
1 | COc1cccc(CNC(=O)c2c(C)nn(-c3ccccc3)c2C)c1 | 8.4 |  | 
2 | O=c1cnc(-c2ccc(Cl)cc2)cn1O | -10 | 0.411 µM [falling, full curve, poor fit] | 
3 | COc1ccc(NC(=O)C2CCC(=O)N2)cc1 (stereo not given) | -2.93 | 0.731 µM [falling, full curve] | 
4 | CCOC(=O)C1=C(C)Nc2nc(SCc3cccnc3)nn2C1c1ccc(OC)cc1 (stereo not given) | 14.6 | 0.146 µM [rising, full curve, poor fit] | 
5 | CS(=O)(=O)Nc1ccccc1C(=O)N1CCN(c2ccccc2)CC1 | 82.1 |  | 16.4 µM [rising, single point]
6 | CC(c1cccs1)N(Cc1ccco1)C(=O)Nc1ccc(Cl)c(Cl)c1 (stereo not given) | -0.283 | 18.4 µM [rising, single point] | 
7 | CCc1nc2ccccc2c(C(=O)OC2CCOC2=O)c1C (stereo not given) | -23.8 | 14.6 µM [falling, partial curve, poor fit] | 
8 | Cc1ccc(C)c(NC(=O)c2cnn3ccccc23)c1 | 6.36 | 0.146 µM [rising, full curve, poor fit] | 
9 | CCN(CC)S(=O)(=O)c1ccc(N2CCOCC2)c(NC(=O)c2ccc(C#N)cc2)c1 |  |  | 0.116 µM [rising, single point]
10 | Cc1cccc(C(=O)NC2CCN(C(=O)N3CCOCC3)CC2)c1 | -56 | 3.66 µM [falling, full curve, poor fit] | 13 µM [falling, partial curve]
11 | Cc1ccc(C)c(S(=O)(=O)NCc2ccc(C(=O)N3CCC(Cc4ccccc4)CC3)cc2)c1 | -4.32 |  | 0.0206 µM [falling, partial curve, poor fit]
12 | Cc1cc(NC(=O)CN(C)C)c([N+](=O)[O-])cc1C | 17.1 |  | 
13 | C#CC1(NC(=O)NC(C)C)CCCCC1 | 38.4 | 4.61 µM [falling, single point] | 6.51 µM [falling, single point]
14 | Cc1nc2ccc(NC(=S)NCCCO)cc2nc1C | 22.4 | 16.4 µM [rising, partial curve, poor fit] | 
15 | CC(=O)NNc1nc2ccccc2s1 | 30.2 |  | 0.731 µM [rising, full curve, poor fit]
16 | COc1ccc(S(N)(=O)=O)cc1C(=O)OCCCOC(=O)c1cc(S(N)(=O)=O)ccc1OC | 13 |  | 0.164 µM [rising, full curve, poor fit]
17 | Nc1nc(SCC(=O)Nc2ccc(C(F)(F)F)cc2)[nH]c(=O)c1NC(=O)c1ccc(F)c(F)c1 | 62.9 |  | 25.9 µM [rising, single point]
18 | COc1cc(C2c3cc4c(cc3C(OC3OC5COC(c6cccs6)OC5C(O)C3O)C3COC(=O)C23)OCO4)cc(OC)c1O (stereo not given) | -50.1 | 23.1 µM [falling, partial curve] | 0.291 µM [falling, full curve]
19 | O=C(CSc1ccc2ccccc2c1)Nn1cnnc1 | -16.2 | 6.51 µM [falling, partial curve] | 

Row | SMILES | cell number change [%] | AC50 [1] | AC50 [2]
20 | Cc1ccc(CN2CC(C(=O)N(Cc3nnc(-c4ccccc4Cl)o3)C3CC3)CC2=O)cc1 (stereo not given) | -50 |  | 16.4 µM [falling, single point]
21 | Cc1ccc(-c2nc3ccccc3o2)cc1NC(=S)NC(=O)c1cc2ccccc2o1 | 1.26 |  | 6.51 µM [falling, single point]
22 | COc1cccc(NC(=O)CSc2nnc(CNC(=O)c3ccccc3F)o2)c1 | -15.6 |  | 
23 | CC(C)NC(=O)C(=O)NCc1ccccn1 | -23.9 | 0.82 µM [falling, full curve] | 0.13 µM [falling, full curve, poor fit]
24 | O=C(CSc1ccc(-c2ccc(F)cc2)nn1)N1CCOCC1 | 30.6 |  | 29.1 µM [rising, single point]
25 | Nc1ccccc1C(=O)Nc1cccc2ccccc12 | -13.7 |  | 
26 | CCC(NC(=S)NCc1ccc(F)cc1)c1ccccc1 (stereo not given) |  | 2.06 µM [rising, partial curve] | 
27 | COC(=O)c1cccc(NC(=O)c2cc(OC)c(OC)c(OC)c2Br)c1 |  | 3.26 µM [rising, single point] | 6.51 µM [falling, single point]
28 | NS(=O)(=O)c1ccc(NC(=O)c2ccc3c(c2)CCN3S(=O)(=O)c2ccccc2)cc1 | -19.9 | 4.61 µM [falling, partial curve] | 
29 | O=C(CCn1nc(-c2ccc(Cl)cc2)c2ccccc2c1=O)NCC1CCCO1 (stereo not given) | 58.6 |  | 29.1 µM [rising, single point]
30 | COc1ccc(C(=O)N2CCC(C(=O)NC3CC3)CC2)cc1 | 1.71 | 29.1 µM [rising, single point] | 
31 | CC(C)C(=O)N1CCN(S(=O)(=O)c2ccc3ccccc3c2)CC1 |  | 3.26 µM [falling, full curve] | 
32 | O=C1CSC(c2ccco2)N1 (stereo not given) | -1.35 | 16.4 µM [falling, single point] | 
33 | N#Cc1ccc(C23CC4(C2)[C@H](CN(Cc2ccc(-c5ccccc5)cc2)[C@@H]4c2ccccc2)C3c2ccc(C(F)(F)F)cc2)cc1 (stereo not given in full) | 37 | 2.59 µM [rising, full curve] | 2.59 µM [rising, full curve]
34 | CCOC(=O)CNS(=O)(=O)CCN1C(=O)c2ccccc2C1=O | 4.94 |  | 
35 | Cc1ccc2[nH]c(=O)c(CNC(C)(C)C)cc2c1 | -35.8 | 18.4 µM [falling, partial curve] | 32.6 µM [falling, single point]
36 | Cc1ccc2oc(C(=O)N3CCN(CCO)CC3)c(C)c2c1 | -25.2 | 29.1 µM [rising, single point] | 
37 | CSc1nnc(NC(=O)c2nc(S(=O)(=O)Cc3ccccc3)ncc2Cl)s1 | -20.8 | 2.31 µM [falling, full curve] | 2.31 µM [falling, partial curve]
38 | COc1cc(C(=O)NCCNC(=O)c2cc(OC)c(C)c(OC)c2)cc(OC)c1C | 25.8 | 25.9 µM [falling, single point] | 

Sorted by molar mass (falling): 3 of the compounds above
Row | SMILES | cell number change [%] | AC50 [1] | AC50 [2]
20 | Cc1ccc(CN2CC(C(=O)N(Cc3nnc(-c4ccccc4Cl)o3)C3CC3)CC2=O)cc1 (stereo not given) | -50 |  | 16.4 µM [falling, single point]
34 | CCOC(=O)CNS(=O)(=O)CCN1C(=O)c2ccccc2C1=O | 4.94 |  | 
36 | Cc1ccc2oc(C(=O)N3CCN(CCO)CC3)c(C)c2c1 | -25.2 | 29.1 µM [rising, single point] | 
